From paper PMC6880622

Experiments:
[1] = target: T1, Cysteine-rich protein 61 (CCN1/Cyr61) (human (endogenous in MDA-MB-231)) (UniProt O00622); assay: co-IP; endogenous proteins of MDA-MB-231 cell lysate (IP Lysis/Wash Buffer: 0.025 M Tris, 0.15 M NaCl, 0.001 M EDTA, 1% NP-40, 5% glycerol, pH 7.4); antibody coupled to aminolink plus coupling resin in spin columns (anti-Cyr61; by the legend also anti-integrin αv and anti-integrin β1); western blot of the eluates; mouse IgG as negative control; co-culture with HPMEC said to promote and metapristone to inhibit the complex
T1 sequence: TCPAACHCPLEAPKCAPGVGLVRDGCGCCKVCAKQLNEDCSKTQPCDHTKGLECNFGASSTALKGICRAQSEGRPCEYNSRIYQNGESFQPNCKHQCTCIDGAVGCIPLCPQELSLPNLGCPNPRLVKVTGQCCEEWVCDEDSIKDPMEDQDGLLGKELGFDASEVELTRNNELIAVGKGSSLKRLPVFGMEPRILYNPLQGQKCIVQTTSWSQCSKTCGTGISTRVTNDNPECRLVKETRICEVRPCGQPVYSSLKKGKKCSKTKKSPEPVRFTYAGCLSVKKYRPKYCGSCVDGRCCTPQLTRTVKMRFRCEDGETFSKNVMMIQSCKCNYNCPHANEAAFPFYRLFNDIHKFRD

[2] = target: integrin αvβ1 (human (endogenous in MDA-MB-231)); assay: as above

- binding [1]: binds
Molecule: integrin αvβ1 (human (endogenous in MDA-MB-231)) (complex)

- binding [2]: binds
B1: Cysteine-rich protein 61 (CCN1/Cyr61) (protein, UniProt O00622 25-381)
chain: T1 sequence

These are yes or no findings as the source states them, for the method shown. Binding seen in cells or lysates may run through a third protein. A result given as binding can be weak or reduced; the word gives no strength. One block for each molecule: values may come before it.
